Data reported in patent publication US20250297216A1, “METHOD FOR PRODUCING MILK LIKE PRODUCTS” (SOCIETE DES PRODUITS NESTLE S.A., priority 2021, published 2025).

Test: GC-FID analysis of fatty acids in cell supernatant
Set-up: species or system human
Settings: protocol of Example 4a, day 42; differences between media and supernatant

Row | Structure (SMILES) | Detected amount in cell supernatant [mg/100 mL]
1 | CCCCCCCCCCCCCCCC(=O)O [C-16:0] | 1.85
2 | CCCCCCCCCCCCCCC(=O)O [C-15:0] | 0.41
3 | CCCCCCCC(=O)O [C-8:0] | 0.49
4 | CCCCCCCCCCCCCCCCC(=O)O [C-17:0] | 0.09
5 | CCCCCCCCCCCCCCCCCCCC(=O)O [C-20:0] | 0.13
6 | CCCCCCCCCCCCCCCCCC(=O)O [C-18:0] | 0.97
7 | CC/C=C\C/C=C\C/C=C\CCCCCCCC(=O)O [C-18:3 n3] | 0.08
8 | CCCCCC/C=C\CCCCCCCC(=O)O [C-16:1n7] | 0.08
9 | CCCCC/C=C\C/C=C\CCCCCCCC(=O)O [C-18:2 n6] | 2.16
10 | CCCCCCCCCCCCCC(=O)O [C-14:0] | 0.44
11 | CCCC(=O)O [C-4:0] | 2.53
12 | CCCCCCCC/C=C\CCCCCCCCCC(=O)O [C-20:1 n9] | 0.11
13 | CCCCCCCCCC(=O)O [C-10:0] | 0.38
14 | CCCCCCCC/C=C\CCCCCCCC(=O)O [C-18:1 n9] | 18.82
15 | CCCCCCCCCCCCCCCCCCCCCC(=O)O [C-22:0] | 0.29

Test: UHPLC quantification of lactose and human milk oligosaccharides in primary cell supernatant
Settings: day 42, 3D differentiation of hiPSC line 603; estimated limit 0.1 mg/L

Row | Structure (SMILES) | amount detected in primary cell supernatants [mg/L]
16 | OC[C@H]1O[C@@H](O[C@H]2[C@H](O)[C@@H](O)C(O)O[C@@H]2CO)[C@H](O)[C@@H](O)[C@H]1O (some centres unmarked) [Lactose] | 0.22
17 | CC(=O)N[C@H]1[C@H]([C@H](O)[C@H](O)CO)O[C@@](OC[C@H]2O[C@@H](O[C@H]3[C@H](O)[C@@H](O)[C@H](O)O[C@@H]3CO)[C@H](O)[C@@H](O)[C@H]2O)(C(=O)O)C[C@@H]1O [6′SL] | 0.32
